The supplement of paper PMC6078165
Values are relative to the signal before dosing, not to a vehicle control; the signal also falls without drug.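 Fibroblast labels name human fibroblasts: mostly primary ones from tissues such as uterus (C12385, HUF), lung (H6013), bone (Hs27A), adrenal (HADF) and skin (WS1), plus mammary HMF and breast cancer-associated Hs343T. The cancer cells are basal-like or mesenchymal-like triple-negative breast cancer lines. The paper calls a changed response a hit when it shifts by more than 3x the replicate standard deviation. The tissue of the other fibroblasts is not given here.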

Test system: Hs578T
Experiment: relative JC-1 red fluorescence (viability) vs pre-drug, coculture with fibroblast (fraction); higher = more viable cancer cells
Conditions: 0.1 µM
Method: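 JC-1 labelled TNBC cells cocultured 1:1 (1,500 cells each) with CellTrace Violet stained primary or stromal fibroblasts in 384-well plates in FluoroBrite medium, treated with one of 42 anticancer drugs at 0.1, 1, 10 or 100 uM. JC-1 red fluorescence (mitochondrial integrity in cancer cells only) was read by plate reader every 8 h for 72 h. Values are normalised to each well's pre-drug value. The stock of one drug was tenfold lower, so its dose labels may be too high.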

COc1cc([C@@H]2c3cc4c(cc3[C@@H](O[C@@H]3O[C@@H]5CO[C@@H](C)O[C@H]5[C@H](O)[C@H]3O)[C@H]3COC(=O)[C@H]23)OCO4)cc(OC)c1O [Etoposide]
Conditions | relative JC-1 red fluorescence
8 h | 0.926
16 h | 0.811
24 h | 0.696
32 h | 0.632
40 h | 0.553

relative JC-1 red fluorescence
Conditions | 8 h | 16 h | 24 h | 32 h | 40 h
coculture fibroblast: C12385 | 0.805 | 0.702 | 0.684 | 0.584 | 0.536
coculture fibroblast: H6013 | 0.8528 | 0.813 | 0.772 | 0.749 | 0.726
coculture fibroblast: H6019 | 0.787 | 0.685 | 0.666 | 0.573 | 0.538
coculture fibroblast: H6076 | 0.8979 | 0.842 | 0.83 | 0.813 | 0.785
coculture fibroblast: H6231 | 0.884 | 0.782 | 0.737 | 0.688 | 0.618
coculture fibroblast: HADF | 0.882 | 0.822 | 0.7423 | 0.6778 | 0.627
coculture fibroblast: HCFa | 0.8168 | 0.735 | 0.6591 | 0.5883 | 0.522
coculture fibroblast: HCPF | 0.921 | 0.834 | 0.766 | 0.7302 | –
coculture fibroblast: HHSteC | 0.86015 | 0.799 | 0.7425 | 0.6848 | –
coculture fibroblast: HMF | 0.9247 | 0.852 | 0.774 | 0.74 | –
coculture fibroblast: HPFa | 0.878 | 0.788 | 0.724 | 0.664 | –
coculture fibroblast: HUF | 0.854 | 0.743 | 0.725 | 0.623 | –
coculture fibroblast: Hs27A | 0.8659 | 0.79 | 0.734 | 0.696 | –
coculture fibroblast: Hs343T | 0.923 | 0.82 | 0.7496 | 0.711 | –
coculture fibroblast: WS1 | 0.784 | 0.677 | 0.627 | 0.532 | –
